PubChem BioAssay AID1224828 – NIAID | 2016
This is an unselected part of about 17,000 reagents tested. In the full data, 762 (4.5%) got an active call. 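Active calls include both raised and lowered p65 entry, mostly lowered; wells with fewer than 50 cells lack a z-score.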 Raw values vary from plate to plate and are shown uncorrected. Entries without a mark were called inactive.

Test: 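Find genes required for NF-kappaB p65 moving into the nucleus after LPS in mouse macrophages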 (primary screen)
System: mouse RAW264.7 G9 macrophage reporter cells (GFP-p65, Tnf promoter-mCherry)
Reagent: siRNA pool against mouse genes, 100 nM
Time to read-out: 2 days siRNA transfection, then 40 min LPS before fixation
Challenge: LPS (Salmonella minnesota R595) at 10 ng/ml
Read-out: 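Imaged p65 nuclear translocation ratio, normalised to the plate median, converted to robust z-scores and averaged across two replicates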
Reading the numbers: p65 translocation robust z-score: higher = more nuclear NF-kappaB p65 after LPS than the plate median; nuclear/cytoplasmic p65 ratio: higher = more nuclear NF-kappaB p65
Call rule: 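Called active when z exceeds 3.3 or falls under -1.56 (median of Tlr4 controls), giving activity score of at least 50; no calls for control wells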
Calls: active = hit (p65 shift raised or lowered); inactive = no clear change

Ppil3 → p65 translocation robust z-score: -0.67; nuclear/cytoplasmic p65 ratio, rep 1: 1.27; nuclear/cytoplasmic p65 ratio, rep 2: 1.16; low cell count flag: enough cells to score
Rab7 → p65 translocation robust z-score: 0.33; nuclear/cytoplasmic p65 ratio, rep 1: 1.5; nuclear/cytoplasmic p65 ratio, rep 2: 1.62; low cell count flag: enough cells to score
Ankrd44 → nuclear/cytoplasmic p65 ratio, rep 1: 1.2; nuclear/cytoplasmic p65 ratio, rep 2: 1.61; low cell count flag: fewer than 50 cells per well; well left out of scoring
Klk15 → p65 translocation robust z-score: -0.51; nuclear/cytoplasmic p65 ratio, rep 1: 1.06; nuclear/cytoplasmic p65 ratio, rep 2: 1.37; low cell count flag: enough cells to score
Gnat1 → p65 translocation robust z-score: 2.07; nuclear/cytoplasmic p65 ratio, rep 1: 1.72; nuclear/cytoplasmic p65 ratio, rep 2: 1.96; low cell count flag: enough cells to score
Derl3 → nuclear/cytoplasmic p65 ratio, rep 1: 1.32; nuclear/cytoplasmic p65 ratio, rep 2: 1.15; low cell count flag: fewer than 50 cells per well; well left out of scoring

Next part; the last 2 above are carried over.
Gnat1 → p65 translocation robust z-score: 2.07; nuclear/cytoplasmic p65 ratio, rep 1: 1.72; nuclear/cytoplasmic p65 ratio, rep 2: 1.96; low cell count flag: enough cells to score
Derl3 → nuclear/cytoplasmic p65 ratio, rep 1: 1.32; nuclear/cytoplasmic p65 ratio, rep 2: 1.15; low cell count flag: fewer than 50 cells per well; well left out of scoring
Tagln3 → nuclear/cytoplasmic p65 ratio, rep 1: 1.44; nuclear/cytoplasmic p65 ratio, rep 2: 1.37; low cell count flag: fewer than 50 cells per well; well left out of scoring
Bcl2l14 → p65 translocation robust z-score: 0.96; nuclear/cytoplasmic p65 ratio, rep 1: 1.66; nuclear/cytoplasmic p65 ratio, rep 2: 1.85; low cell count flag: enough cells to score
Wdhd1 → p65 translocation robust z-score: -0.28; nuclear/cytoplasmic p65 ratio, rep 1: 1.5; nuclear/cytoplasmic p65 ratio, rep 2: 1.54; low cell count flag: enough cells to score
Nipa2 → p65 translocation robust z-score: 1.25; nuclear/cytoplasmic p65 ratio, rep 1: 1.42; nuclear/cytoplasmic p65 ratio, rep 2: 1.41; low cell count flag: enough cells to score
Med8 → nuclear/cytoplasmic p65 ratio, rep 1: 1.44; nuclear/cytoplasmic p65 ratio, rep 2: 1.54; low cell count flag: fewer than 50 cells per well; well left out of scoring
Mstn → p65 translocation robust z-score: -1.36; nuclear/cytoplasmic p65 ratio, rep 1: 1.22; nuclear/cytoplasmic p65 ratio, rep 2: 1.22; low cell count flag: enough cells to score
